{
  "sequences": {"note": "By UniProt entry, the sequences of proteins in these tests, tags left out.", "UniProt Q93034": "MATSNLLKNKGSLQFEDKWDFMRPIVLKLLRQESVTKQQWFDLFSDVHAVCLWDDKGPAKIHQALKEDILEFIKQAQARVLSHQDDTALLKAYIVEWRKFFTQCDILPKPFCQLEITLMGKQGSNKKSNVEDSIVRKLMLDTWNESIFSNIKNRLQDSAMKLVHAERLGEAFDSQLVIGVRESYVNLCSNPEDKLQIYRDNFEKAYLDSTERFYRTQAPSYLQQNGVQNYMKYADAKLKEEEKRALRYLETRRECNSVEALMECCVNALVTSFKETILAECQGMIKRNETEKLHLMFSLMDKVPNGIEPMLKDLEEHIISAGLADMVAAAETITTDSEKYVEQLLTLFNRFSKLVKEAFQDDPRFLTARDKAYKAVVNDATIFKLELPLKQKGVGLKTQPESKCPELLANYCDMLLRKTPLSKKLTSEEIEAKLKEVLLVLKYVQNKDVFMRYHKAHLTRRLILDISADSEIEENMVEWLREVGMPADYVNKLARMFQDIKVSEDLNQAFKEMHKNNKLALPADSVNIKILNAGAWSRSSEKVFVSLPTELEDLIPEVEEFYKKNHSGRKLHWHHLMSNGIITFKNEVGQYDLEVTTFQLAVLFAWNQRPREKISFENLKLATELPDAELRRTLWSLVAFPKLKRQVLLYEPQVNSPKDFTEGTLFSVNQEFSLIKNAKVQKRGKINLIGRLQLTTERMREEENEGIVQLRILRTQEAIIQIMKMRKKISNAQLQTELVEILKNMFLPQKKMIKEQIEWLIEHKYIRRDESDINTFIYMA", "UniProt Q9NYG5": "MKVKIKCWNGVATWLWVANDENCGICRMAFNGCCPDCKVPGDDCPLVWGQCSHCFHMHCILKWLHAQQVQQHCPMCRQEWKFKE"},
  "source": "paper PMC12806337",
  "biological_target": "SBP-S-CUL5 (UniProt Q93034)",
  "assay": "affinity purification with mass spectrometry; tandem affinity purification of SBP-S-CUL5 from MIA PaCa-2 lysate (NETN buffer: 0.5% NP-40, 50 mM Tris pH 8, 0.1 M NaCl, 2 mM EDTA): Streptavidin Sepharose, biotin elution, then S-protein agarose; SDS-PAGE and LC-MS/MS; mock vector pLVX as control",
  "note": "Results are given in words; binding and its absence hold for the method and conditions named. In cells and extracts the contact can be indirect. Here binding means that the protein was enriched with, or labelled near, the bait; the list need not be complete.",
  "data": [
    {"substance": "endogenous APC11 (from UniProt Q9NYG5 1-84)", "values": [
      {"measurement": "binding", "value": "binds"}
    ]}
  ]
}
